Earlier results on one molecule are cited in US20070166816A1, “Assay device that analyzes the absorption, metabolism, permeability and/or toxicity of a candidate compound” (Surface Logix, Inc., priority 2002, published 2007).

The test system of this data set is Caco-2 cells. The conditions noted are these: previously characterized in Caco-2 assays; qualitative grade.

For `NS(=O)(=O)c1cc(C(=O)O)c(NCc2ccco2)cc1Cl` [Furosemide], the Absorbance in vitro entry was “Very Low”.
